At least one compound was matched to its structure with a doubt left.
Tested on: commercially available YKO (Invitrogen, #95401.H2) knockout strains
Test: Identification of target molecule using commercially available YKO collection (sensitivity ranking by area score)
Type: cell-based, Saccharomyces cerevisiae
Description: Identification of a target molecule of lovastatin was conducted in the same manner as in Example 7, except that commercially available YKO (Invitrogen, #95401.H2) composed of 4,847 strains was used instead of BF-YKO.
Identification of a target molecule of rapamycin was conducted in the same manner as in Example 9, except that commercially available YKO (Invitrogen, #95401.H2) composed of 4,847 strains was used instead of SBF-YKO and that the compound concentrations were changed to 10 nM, 12.5 nM and 15 nM.

Measured: sensitivity of TOR1 gene knockout strain

CO[C@H]1C[C@@H]2CC[C@@H](C)[C@@](O)(O2)C(=O)C(=O)N2CCCC[C@H]2C(=O)O[C@H]([C@H](C)C[C@@H]2CC[C@@H](O)[C@H](OC)C2)CC(=O)[C@H](C)/C=C(\C)[C@@H](O)[C@@H](OC)C(=O)[C@H](C)C[C@H](C)/C=C/C=C/C=C/1C [rapamycin]
high sensitivity: rapamycin 10 nM | rapamycin 12.5 nM | rapamycin 15 nM
